Reference: the supplement of paper PMC10849652
Some of the results follow.

The chains behind the UniProt entries cited, without tags or fusion partners. Where a name states a change or a piece, a line headed by the entry shows the natural chain unless it says otherwise.
UniProt Q3SXY8: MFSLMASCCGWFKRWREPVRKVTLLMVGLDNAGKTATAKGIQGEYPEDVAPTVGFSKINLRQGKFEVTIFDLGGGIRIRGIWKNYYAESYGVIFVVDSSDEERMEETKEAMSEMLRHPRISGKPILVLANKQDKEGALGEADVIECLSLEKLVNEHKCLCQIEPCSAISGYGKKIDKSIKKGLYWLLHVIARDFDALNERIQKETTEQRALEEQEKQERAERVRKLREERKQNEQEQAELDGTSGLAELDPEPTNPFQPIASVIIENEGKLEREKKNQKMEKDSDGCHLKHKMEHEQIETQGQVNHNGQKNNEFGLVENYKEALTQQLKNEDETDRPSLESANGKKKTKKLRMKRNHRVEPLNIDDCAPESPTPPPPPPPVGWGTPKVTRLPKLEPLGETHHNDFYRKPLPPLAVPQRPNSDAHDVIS
UniProt P27540, whole entry, looked up: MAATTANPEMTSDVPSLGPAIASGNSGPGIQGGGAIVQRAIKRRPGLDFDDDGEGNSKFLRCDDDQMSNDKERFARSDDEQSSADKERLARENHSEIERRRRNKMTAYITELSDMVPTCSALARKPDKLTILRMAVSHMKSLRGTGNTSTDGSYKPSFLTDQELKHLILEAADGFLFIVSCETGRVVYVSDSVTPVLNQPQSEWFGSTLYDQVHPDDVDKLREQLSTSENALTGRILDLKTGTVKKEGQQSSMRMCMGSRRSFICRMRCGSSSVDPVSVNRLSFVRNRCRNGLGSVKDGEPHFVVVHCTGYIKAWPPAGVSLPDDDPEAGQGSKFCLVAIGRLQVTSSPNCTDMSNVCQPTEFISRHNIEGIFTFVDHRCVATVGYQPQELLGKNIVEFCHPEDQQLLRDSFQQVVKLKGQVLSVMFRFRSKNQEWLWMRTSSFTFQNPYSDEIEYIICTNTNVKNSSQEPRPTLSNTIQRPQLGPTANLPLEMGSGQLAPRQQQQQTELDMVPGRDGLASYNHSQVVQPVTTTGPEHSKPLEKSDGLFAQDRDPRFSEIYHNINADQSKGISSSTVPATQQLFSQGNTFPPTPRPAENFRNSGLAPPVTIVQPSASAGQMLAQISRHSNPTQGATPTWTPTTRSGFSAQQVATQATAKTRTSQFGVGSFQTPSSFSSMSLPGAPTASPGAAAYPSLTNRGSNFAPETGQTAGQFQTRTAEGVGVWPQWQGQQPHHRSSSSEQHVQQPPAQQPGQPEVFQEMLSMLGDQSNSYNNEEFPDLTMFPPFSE
UniProt Q8IUX4: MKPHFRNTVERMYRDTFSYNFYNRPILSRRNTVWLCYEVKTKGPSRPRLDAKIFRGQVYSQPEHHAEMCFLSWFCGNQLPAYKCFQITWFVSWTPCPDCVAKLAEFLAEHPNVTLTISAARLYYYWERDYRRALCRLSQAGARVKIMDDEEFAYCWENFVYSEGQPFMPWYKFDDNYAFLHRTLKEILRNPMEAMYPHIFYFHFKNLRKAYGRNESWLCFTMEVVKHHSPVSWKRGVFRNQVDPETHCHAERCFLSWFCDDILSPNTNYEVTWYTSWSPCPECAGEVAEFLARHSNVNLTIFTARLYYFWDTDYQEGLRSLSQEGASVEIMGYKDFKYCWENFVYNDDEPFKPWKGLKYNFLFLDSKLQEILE

What was measured:
Assay in all cases: log2 fold change, soluble protein after heating vs DMSO (PISA); higher = thermal stabilisation; K562 lysate, 10 uM; active = over 0.2 and 3.5 SD of the protein, either way, in both replicates (recomputed)
vemurafenib = compound: CCCS(=O)(=O)Nc1ccc(F)c(C(=O)c2c[nH]c3ncc(-c4ccc(Cl)cc4)cc23)c1F [vemurafenib]
Method in brief: (§1)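 Thermal stability, expressed as log-two fold change relative to solvent controls, is given from duplicates. Crude K562 extract in PBS pH 7.4 with 1 mM MgCl2, at 1 mg/mL protein, was treated with 10 μM compound for 30 min and heated in aliquots for 3 min across 48°C-58°C. After pooling, adjustment to 0.5% NP-40 at 4°C and centrifugation at 21,000xg for 90 min, supernatant protein was measured by TMTpro 16plex LC-MS/MS with channel sums equalised.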

[1] = compound: CCCS(=O)(=O)Nc1ccc(F)c(C(=O)c2c[nH]c3ncc(Cl)cc23)c1F
Method in brief: as §1

barasertib = compound: CCN(CCCOc1ccc2c(Nc3cc(CC(=O)Nc4cccc(F)c4)[nH]n3)ncnc2c1)CCOP(=O)(O)O [barasertib]
Method in brief: as §1

volasertib = compound: CC[C@@H]1C(=O)N(C)c2cnc(Nc3ccc(C(=O)N[C@H]4CC[C@H](N5CCN(CC6CC6)CC5)CC4)cc3OC)nc2N1C(C)C [volasertib]
Method in brief: as §1

[2] = compound: CCn1c(C(=O)N(C2CC2)C2CC2)cc2c3c(ncn3C)c(Nc3cc(C)n(C)n3)nc21
Method in brief: as §1

[3] = compound: CCn1cc(-c2ccnc3[nH]c(-c4cccc(CN(C)C)c4)cc23)c(-c2ccc(NC(=O)N(C)C)cc2)n1
Method in brief: as §1

[4] = compound: CN1CCC(CNc2ccc3ncc(-c4cccc(OC(F)(F)F)c4)n3n2)CC1
Method in brief: as §1

saracatinib = compound: CN1CCN(CCOc2cc(OC3CCOCC3)c3c(Nc4c(Cl)ccc5c4OCO5)ncnc3c2)CC1 [saracatinib]
Method in brief: as §1

sotrastaurin = compound: CN1CCN(c2nc(C3=C(c4c[nH]c5ccccc45)C(=O)NC3=O)c3ccccc3n2)CC1 [sotrastaurin]
Method in brief: as §1

[5] = compound: CC[C@@H]1C(=O)N(C)c2cnc(Nc3ccc(C(=O)NC4CCN(C)CC4)cc3OC)nc2N1C1CCCC1
Method in brief: as §1

Measured: log2 fold change

ARL13B (UniProt Q3SXY8)
inactive: vemurafenib -0.075 | [1] -0.039 | barasertib -0.041 | volasertib 0.065 | [2] -0.043 | [3] 0.325 | [4] -0.246 | saracatinib 0.007 | sotrastaurin 0.117

ARNT (UniProt P27540)
inactive: vemurafenib 0.022 | [1] 0.013 | barasertib -0.039 | [5] 0.136 | volasertib -0.067 | [2] 0.008 | [3] -0.066 | [4] 0.027 | saracatinib -0.005 | sotrastaurin 0.007

APOBEC3F (UniProt Q8IUX4)
inactive: vemurafenib -0.001 | [1] 0.005 | barasertib 0.025 | [5] 0.08 | volasertib -0.06 | [3] -0.163 | [4] 0.066 | sotrastaurin 0.008
